According to paper PMC12406256, “Food Additives Inhibit Intestinal Drug Transporters but Have Limited Effect on In Vitro Drug Permeability” (Molecular Pharmaceutics, 2025):

Assay: Fluorescence interference studies
Details: for interference with the fluorescence of the substrates: highest possible concentration, all substrates

In the case of CC1=C(/C=C/C(C)=C/C=C/C(C)=C/C=C/C=C(C)/C=C/C=C(C)/C=C/C2=C(C)CCCC2(C)C)C(C)(C)CCC1 [beta-carotene], the “interference with the fluorescence of the substrates” value (“interference with the fluorescence” below) is reported as “more than 20%” and the “quenching of LY and 5-CF fluorescence” value (lower concentrations (10-50% of maximal achievable)) is reported as ≤ 30%.
With Cc1cc(C(C)(C)C)c(O)c(C(C)(C)C)c1 [butylated hydroxytoluene] the “interference with the fluorescence” value was “did not interfere”.
In the case of CCCCCCCCCCCCOC(=O)c1cc(O)c(O)c(O)c1 [dodecyl gallate], the “quenching of LY fluorescence” value (highest concentration) is reported as ≥ 20%.
For CCCCCCCCOC(=O)c1cc(O)c(O)c(O)c1 [octyl gallate], the “interference with the fluorescence” value was “did not interfere”.
